The record followed here is PMC11141880.

No constants are given. Whether binding was seen depends on the method and setting. In cells and extracts the contact can be indirect. Sequences can lack the tags named with a protein.

The target in the assay is T1, Myc-tagged zebrafish atrogin-1 (zebrafish) (UniProt Q7ZTY2).
T1 sequence: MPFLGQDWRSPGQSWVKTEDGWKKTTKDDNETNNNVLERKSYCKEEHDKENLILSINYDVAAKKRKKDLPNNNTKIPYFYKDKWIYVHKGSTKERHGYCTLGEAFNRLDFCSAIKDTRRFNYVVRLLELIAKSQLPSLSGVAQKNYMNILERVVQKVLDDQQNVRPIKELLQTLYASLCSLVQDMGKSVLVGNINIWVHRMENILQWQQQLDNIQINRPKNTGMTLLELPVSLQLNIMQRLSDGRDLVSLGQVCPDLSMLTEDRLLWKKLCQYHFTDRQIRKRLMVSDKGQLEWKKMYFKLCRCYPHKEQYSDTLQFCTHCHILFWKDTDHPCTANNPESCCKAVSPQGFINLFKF
Put plainly: co-IP; HEK293T cells cotransfected with Myc-atrogin-1 and/or BiP-HA (GFP as control); lysates in IP Lysis buffer with protease inhibitors; anti-Myc antibody-conjugated magnetic beads (c-Myc-Tag Magnetic IP/Co-IP Kit), overnight at 4°C; Western blot with anti-Myc and anti-HA.

For the substance HA-tagged zebrafish BiP, the binding entry is recorded as “no binding”.
